Paper PMC12821908
Results are given in words; binding and its absence hold for the method and conditions named. Binding seen in cells or lysates may run through a third protein. Some results given as binding are weak or reduced against the parent protein; the word gives no strength.

Protein sequences, listed by entry. Tags and fused reporters are not part of them.
UniProt O43143: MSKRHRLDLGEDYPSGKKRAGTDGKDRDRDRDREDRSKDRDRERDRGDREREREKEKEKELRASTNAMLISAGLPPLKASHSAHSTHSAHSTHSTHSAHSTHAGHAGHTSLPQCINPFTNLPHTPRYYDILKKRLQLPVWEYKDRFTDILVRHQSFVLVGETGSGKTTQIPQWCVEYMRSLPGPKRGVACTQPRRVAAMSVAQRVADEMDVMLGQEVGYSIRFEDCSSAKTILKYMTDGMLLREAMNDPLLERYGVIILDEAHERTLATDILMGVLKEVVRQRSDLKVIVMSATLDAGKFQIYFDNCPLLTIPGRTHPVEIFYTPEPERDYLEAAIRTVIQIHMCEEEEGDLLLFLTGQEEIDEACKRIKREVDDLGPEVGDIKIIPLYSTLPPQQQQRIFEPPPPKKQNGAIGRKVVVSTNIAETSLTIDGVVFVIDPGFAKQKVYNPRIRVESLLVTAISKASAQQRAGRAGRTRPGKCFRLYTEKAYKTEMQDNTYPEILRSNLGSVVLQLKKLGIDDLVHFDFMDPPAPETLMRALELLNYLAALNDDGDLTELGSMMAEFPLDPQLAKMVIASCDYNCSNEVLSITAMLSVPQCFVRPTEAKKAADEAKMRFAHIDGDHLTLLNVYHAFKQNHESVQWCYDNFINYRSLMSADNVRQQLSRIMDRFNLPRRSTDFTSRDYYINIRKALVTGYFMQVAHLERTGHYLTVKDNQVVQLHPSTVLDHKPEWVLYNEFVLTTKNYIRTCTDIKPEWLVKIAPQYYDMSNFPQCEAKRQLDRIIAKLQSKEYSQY
UniProt Q92769: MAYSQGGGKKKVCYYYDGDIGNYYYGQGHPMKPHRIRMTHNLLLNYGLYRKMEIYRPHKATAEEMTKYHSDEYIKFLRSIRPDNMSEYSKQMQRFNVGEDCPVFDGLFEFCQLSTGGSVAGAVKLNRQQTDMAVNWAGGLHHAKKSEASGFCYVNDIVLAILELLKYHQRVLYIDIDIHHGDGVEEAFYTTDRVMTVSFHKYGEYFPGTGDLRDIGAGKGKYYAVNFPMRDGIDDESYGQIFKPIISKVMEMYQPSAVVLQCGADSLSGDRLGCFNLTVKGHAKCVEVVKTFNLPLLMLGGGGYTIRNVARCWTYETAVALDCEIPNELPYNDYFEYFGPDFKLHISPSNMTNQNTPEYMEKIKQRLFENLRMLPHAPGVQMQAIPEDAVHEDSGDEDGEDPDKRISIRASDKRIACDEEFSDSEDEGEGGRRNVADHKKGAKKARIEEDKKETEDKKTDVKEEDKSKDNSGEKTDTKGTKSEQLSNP

Target: Flag-tagged DExH-box helicase 15 (DHX15) wild-type (UniProt O43143)
Assay: co-IP; UM-UC-3 cells transfected with Flag-DHX15 (alone, or together with HA-HDAC2); lysis in IP buffer (50 mM Tris-HCl pH 7.5, 150 mM NaCl, 1 mM EDTA, 1% Nonidet P-40), antibody overnight at 4 °C, protein A/G agarose beads, five washes, Western blot

binding	Substance
binds	HA-tagged HDAC2 (from UniProt Q92769 1-488) (enzyme)
binds	endogenous HDAC2 (from UniProt Q92769 1-488) (enzyme)
